Measurements published in the supplement of paper PMC8104966.
The other results are listed elsewhere or left out. Repeats in this data set agree poorly, so a single value says little.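 U2OS cells expressing ACE2 were combined with U2OS cells expressing full-length spike, and imaging quantified fusion as the fraction of nuclei displaying both cell types' fluorescent markers. Non-toxic compounds with a fusion z-score under -3, i.e., over three standard deviations below the plate's DMSO wells, are called inhibitory hits.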

Each compound was assayed on U2OS ACE2 x SARS-CoV-2 spike co-culture (assay: cell-cell fusion (fraction fused) z-score vs plate DMSO control; higher = more fusion). Settings: 30 µM; 5 h; toxicity class: non-toxic, passed QC.

Row | SMILES | cell-cell fusion (z-score)
1 | COC(=O)C(c1ccccc1Cl)N1CCc2sccc2C1.O=S(=O)(O)O (racemic) [(±) Clopidogrel hydrogen sulfate] | inactive: 3.39
2 | Cc1cccc(N(C)C(=S)Oc2ccc3ccccc3c2)c1 | inactive: 1.26
3 | CC1=CCC[C@@H]2C1(C)CCC(C)[C@@]2(C)CC/C(C)=C/Cn1c[n+](C)c2c(N)ncnc21.[Cl-] (some centres undefined) | inactive: 0.83
4 | O=C(NOC[C@H](O)CO)c1ccc(F)c(F)c1Nc1ccc(I)cc1F | inactive: 1.08
5 | CO/N=C(\C(=O)N[C@@H]1C(=O)N2C(C(=O)[O-])=C(COC(C)=O)CS[C@H]12)c1csc(N)n1.[Na+] [Cefotaxime sodium] | inactive: 1.46
6 | [Cl-].CN(C)c1ccc2nc3cc\c(cc3sc2c1)=[N+](/C)C [Methylene Blue] | inactive: 1.41
7 | C[C@]12C/C(=C/O)C(=O)C[C@@H]1CC[C@@H]1[C@@H]2CC[C@@]2(C)[C@H]1CC[C@]2(C)O [Oxymetholone] | inactive: 2.2
8 | CCc1cc2c(cc1CC)CC(NC[C@H](O)c1ccc(O)c3[nH]c(=O)ccc13)C2.O=C(O)/C=C\C(=O)O [Indacaterol maleate] | active: -9.31
9 | CCCCCCCCCCCCCCCCOP(=O)([O-])OCC[N+](C)(C)C | active: -6.48
10 | CCCCOC(=O)NS(=O)(=O)c1sc(CC(C)C)cc1-c1ccc(Cn2c(CC)nc3c(C)cc(C)nc32)cc1 | active: -3.02
11 | c1ccc(-c2cnn3cc(-c4ccc(OCCN5CCOCC5)cc4)cnc23)cc1 | inactive: 1.73
12 | Nc1ncn([C@@H]2O[C@H](CO)[C@@H](O)[C@H]2O)c(=O)n1 | inactive: 2.13
13 | Nc1ncn([C@@H]2O[C@H](CO)[C@@H](O)[C@H]2O)c(=O)n1 [5-azacytidine] | inactive: 3.15
14 | CCCCCCCC/C=C\CCCCCCCC(=O)NCCO [N-Oleoylethanolamine] | inactive: 1.63
15 | CCOC(=O)N1CCN(/[N+]([O-])=N/Oc2ccc([N+](=O)[O-])cc2[N+](=O)[O-])CC1 | inactive: 2.72
16 | O=c1cc(-c2ccccc2O)oc2cc(O)ccc12 | inactive: 1.54
17 | CCn1c(=O)[nH]c2cc(Cl)c(Cl)cc21 | inactive: -2.68
18 | Clc1ccc(C(c2ccccc2Cl)C(Cl)Cl)cc1 (centres undefined) [1-(2-Chlorophenyl)-1-(4-chlorophenyl)-2,2-dichloroethane] | inactive: 2.13
19 | CCC(=O)NCC[C@@H]1CCc2ccc3c(c21)CCO3 [Ramelteon] | inactive: 2.49

Some values from the list:
In cell-cell fusion (z-score), CC1=CCC[C@@H]2C1(C)CCC(C)[C@@]2(C)CC/C(C)=C/Cn1c[n+](C)c2c(N)ncnc21.[Cl-] (some centres undefined) is listed with inactive: 0.83
In cell-cell fusion (z-score), O=c1cc(-c2ccccc2O)oc2cc(O)ccc12 is listed with inactive: 1.54
